Binding data for two molecules are collected here from patent US20180236071A1 (ACTICOR BIOTECH, published 2018).

Test [1] addresses T1, Soluble GPVI-Fc (human, UniProt Q9HCN6 21-269).
T1 construct: also called soluble human GPVI
T1 chain: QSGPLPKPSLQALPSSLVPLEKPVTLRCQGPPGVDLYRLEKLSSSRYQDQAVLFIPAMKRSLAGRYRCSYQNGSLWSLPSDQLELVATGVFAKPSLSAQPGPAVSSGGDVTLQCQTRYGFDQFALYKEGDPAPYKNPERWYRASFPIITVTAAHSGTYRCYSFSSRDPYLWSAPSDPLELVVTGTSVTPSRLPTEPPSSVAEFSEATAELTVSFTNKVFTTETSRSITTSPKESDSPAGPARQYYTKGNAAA
The test can be described thus: SPR, BIAcore 2000. In general terms: In SPR one partner is held on a chip, and binding of the other changes the refractive index at the surface.

In test [2] the target is T1, Soluble GPVI-Fc. As to the kind of experiment: ELISA on plate-coated GPVI-Fc, bound Fab detected, absorbance at 485 nm. For orientation: An ELISA detects its analyte on a solid surface through an enzyme-linked reagent.

Numbering of substitutions follows the chain as printed. Results are given in words; binding and its absence hold for the method and conditions named. Some entries that bind do so weakly or less than the wild type.

B1: ACT006 antibody (humanized Fab fragment) (Fab, V domains shown)
VH: QVQLVQSGAEVKKPGASVKVSCKASGYTFTSYNMHWVRQAPGQGLEWMGGIYPGNGDTSYNQKFQGRVTMTRDTSTSTVYMELSSLRSEDTAVYYCARGTVVGDWYFDVWGQGTLVTVSS
VL: DIQMTQSPSSLSASVGDRVTITCSASQSLENSNGNTYLNWYQQKPGKAPKLLIYRVSNRFSGVPSRFSGSGSGTDFTLTISSLQPEDFATYYCLQLTHVPWTFGQGTKVEIKR
On to B1, for which the binding result in test [1] and in test [2] was “binds” in each case.

B2: ACT017 antibody (humanized Fab fragment) (Fab, V domains shown)
VH: B1 VH
VL: B1 VL with S24R, A25S, L78F, F88I, K112T
notes: Coupled to Alexa488 for the flow cytometry assay; also called ACT17; humanized Fab ACT017
Take B2: the binding result in test [1] and in test [2] was “binds” throughout.
